Results: PubChem BioAssay AID1259415 (National Center for Advancing Translational Sciences (NCATS), 2018)
About 18,000 (4.4%) of roughly 410,000 compounds were called active. Inconclusive means that the source gave no clear call. Such entries were picked first, then a sample of the others. Rule as the data show it: active = activity change below about -60%; inconclusive = no clear call, values can overlap the other calls; inactive = above about -39%.

Experiment: qHTS Assay for inhibitors of the human cytomegalovirus (HCMV)
Conditions: HFF cells, HCMV-luciferase reporter, 72 h; at 57.5 µM; active compounds read low
How it was run: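 HFF cells seeded 16 h at 37C, treated with compounds, infected with luciferase-reporter HCMV at MOI 1 PFU/cell; luciferase read at 72 h post infection, normalized to buffer-only and Salinomycin controls.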
% is scaled to controls: 0 for no effect and ±100 for the full control effect.

Compound	activity change, negative = inhibition
Cc1ccc(/C=C2/Sc3ccccc3N(CC(=O)NCCCOC(C)C)C2=O)cc1	inconclusive: -42.5%
Cc1ccc(CNc2ccc(CNc3ncn[nH]3)cc2)cc1	inactive: 3.75%
O=C(Cc1ccc(NC(=O)N2CCSc3ncccc32)cc1)NCc1ccccc1Cl	inactive: 8.68%
O=C(CSCCc1ccccn1)Nc1ccccn1	inactive: 45.2%
C#CCOC(=O)Nc1cccn(Cc2c(Cl)cccc2Cl)c1=O	inconclusive: -41.7%
COc1ccc(NC(=S)N2CCC(N(C)CC3CCCO3)CC2)cc1Cl (configuration not stated)	inactive: 4.14%
Nc1c(N(Cc2ccco2)C(=O)c2ccccc2F)c(=O)[nH]c(=O)n1Cc1ccccc1	inactive: -17.7%
CCN(CCn1cccn1)C(=O)C1CCC(=O)N(CCN2CCOCC2)C1 (configuration not stated)	inactive: 17.1%
CCn1c(/C=C/c2c(C)n(CC)c3ccccc23)nc2ccccc2c1=O	inactive: -0.155%
O=C(NCC(c1cccs1)N1CCOCC1)c1cn(-c2ccccc2)nc1-c1ccc(F)cc1 (configuration not stated)	inconclusive: -44.5%
CCSc1ccc(-c2nn(-c3ccccc3)cc2/C=C(/C#N)C(=O)NC)cc1	inactive: 2.43%
CC1CCc2nc(NC(=O)COc3ccc(C(C)(C)C)cc3)sc2C1 (configuration not stated)	inactive: -35.7%
Cc1ccc(-n2c(=O)c3c(c4cc(C)ccc4n3C)n(CC(=O)Nc3c(C)cccc3C)c2=O)cc1	inactive: 20.5%
CN(C)CCNC(=S)Nc1ccc(Cl)cc1Cl	inactive: 7.64%
O=C(NNS(=O)(=O)c1ccccc1F)c1ccccc1-n1cccc1	inconclusive: -45.7%
CC(C)(C)OC(=O)NCCCCCNC(=O)c1nc[nH]c1C(=O)NCCCCCNC(=O)OC(C)(C)C	active: -75.1%
COc1ccc(S(=O)(=O)N2CCCCCC2)cc1NC(=O)CN(C)Cc1ccc2c(c1)OCO2	inconclusive: -43.7%
COc1cc([N+](=O)[O-])ccc1NC(=O)CCCOc1cc(C)ccc1C	inconclusive: -40.5%
Cc1ccc(CNc2ccc(-c3nc(C(C)C)no3)cc2[N+](=O)[O-])cc1	inactive: 7.13%
O=C1CN(S(=O)(=O)Cc2ccccc2)C[C@H]2[C@H](c3ccc(Br)cc3)[C@H](CO)N12	inactive: -0.78%
COc1cccc(CN2CCN(Cc3ccco3)CC2)c1	inactive: 98.3%
NC(=O)c1oc2ccccc2c1NC(=O)c1ccc([N+](=O)[O-])o1	active: -102%

5 entries from above, in markdown.

| Compound | activity change, negative = inhibition |
| --- | --- |
| Cc1ccc(CNc2ccc(CNc3ncn[nH]3)cc2)cc1 | inactive: 3.75% |
| O=C(Cc1ccc(NC(=O)N2CCSc3ncccc32)cc1)NCc1ccccc1Cl | inactive: 8.68% |
| O=C(CSCCc1ccccn1)Nc1ccccn1 | inactive: 45.2% |
| C#CCOC(=O)Nc1cccn(Cc2c(Cl)cccc2Cl)c1=O | inconclusive: -41.7% |
| COc1ccc(NC(=S)N2CCC(N(C)CC3CCCO3)CC2)cc1Cl (configuration not stated) | inactive: 4.14% |

Later entries.

Compound	activity change, negative = inhibition
Cc1ccc(O)c(N=NC2=C(O)CC(C)(C)CC2=O)c1	active: -101%
O=C(CSc1ccccc1)N1CCCC(N2CCN(c3ccc(F)cc3)CC2)C1 (configuration not stated)	active: -69.8%
CC(NC(=O)CCc1nnc(C2CCCCC2)o1)c1ccc(F)cc1 (configuration not stated)	inconclusive: -47%
CCOc1ccc(-n2c(SCC(=O)Nc3cc(C)on3)nc3c(c2=O)SCC3)cc1	inconclusive: -52%
Cc1cccc(-c2nnc(SCC(=O)N3CCCC3)o2)c1	inactive: -26.2%
CCc1ccc(CNC(=O)c2ccc3nc(SCc4ccc(F)cc4)n(C)c3c2)cc1	inactive: -11.5%
Cn1c(N/N=C/c2cc3ccccc3nc2Cl)nc2ccccc21	inactive: 189%
COc1cc(NC(=O)c2cc3ccccc3cc2O)c(OC)cc1Cl	active: -101%
COc1ccc2[nH]c(C(=O)N/N=C/c3ccc(OC)c(O)c3)cc2c1	active: -74%
CC(OC(=O)C1=COCCO1)C(=O)NC1CCCCC1C (configuration not stated)	inactive: -7.31%
CCCCOc1ccc(S(=O)(=O)Nc2cc(OC)ccc2OC)cc1	inconclusive: -44.8%
COc1ccc(Cl)cc1NC(=O)c1cc(-c2ccccc2O)n[nH]1	inactive: -30.8%
CCCC[n+]1c(C)sc2ccc(C)cc21	inactive: -0.0945%
COc1ccccc1/C=C/CN1CCC(n2nccc2NC(=O)CCc2ccccc2)CC1	inconclusive: -59.3%
CCOC(=O)c1ccc(N2C(=O)c3n[nH]c(C)c3C2c2cccnc2)cc1 (configuration not stated)	inactive: 4.72%
COc1ccc(C2CC(c3ccccc3OC(C)=O)=NN2C(=O)/C=C/c2ccccc2)cc1OC (configuration not stated)	inconclusive: -41.7%
CCS(=O)(=O)NCCc1csc(-c2ccc(OC)c(OC)c2)n1	inconclusive: 0%
COc1cc(F)ccc1CN1CCC(n2nccc2NC(=O)C2CCOC2)CC1 (configuration not stated)	inconclusive: -51.4%
COCCCNc1nc2c(c(=O)[nH]c(=O)n2C)n1CC(O)COc1cccc(C)c1 (configuration not stated)	inactive: 47.6%
CN(Cc1ccccc1)C(=O)c1ccc(NC(=O)Cc2ccc([N+](=O)[O-])cc2)cc1	inactive: -22.9%
COc1cccc(C(=O)NNC(=O)Cc2ccc(Cl)cc2)c1	inconclusive: -56.8%
CCOC(=O)c1ccc(NC(=O)Cn2nc(SC)c(S(=O)(=O)c3ccc(Cl)cc3)c2N)cc1	active: -104%

Compound	activity change, negative = inhibition
CC(C)(C)NC1=NCCNC(c2ccccc2)=C1	inconclusive: -41%
CC(C)Cn1c(N2CCN(CC(=O)Nc3ccc(Cl)cc3)CC2)nc2ccccc21	inconclusive: -48.2%
COC(=O)c1nn(-c2ccccc2)nc1-c1nn(-c2ccccc2)nc1C(=O)OC	inactive: 21.7%
C[C@]12CCC3C(CC[C@H]4C[C@H](O)CC[C@]34C)C1[C@@H](O)C[C@@H]2O (some centres not stated)	inconclusive: -42.4%
COc1ccc(-c2csc3nc(C)nc(N4CCCCC4)c23)cc1OC	inactive: 85%
CCNC(=S)Nc1ccc2c(c1)c(=O)n(C)n2CC=C(C)C	inconclusive: -56.4%
O=C(O)C1Cc2[nH]cnc2C(c2ccc(F)cc2)N1 (configuration not stated)	inconclusive: -44%
CCCCc1ccc(NC(=O)CSc2nc(=O)n3cc(C)ccc3n2)cc1	active: -66.5%
CCCCC(=O)Nc1cc(C)c(O)c(-c2nc3ncccc3o2)c1	inactive: -17.2%
CSc1oc(-c2ccccc2)nc1S(=O)(=O)c1ccc(F)cc1	inconclusive: -48.4%
Cc1cc(NCc2ccccn2)n2nc(C)c(-c3ccc(Cl)cc3)c2n1	active: -98.8%
Cc1ccc(-n2nc3c(SCCN4CCOCC4)nnc(C)c3c2C)cc1	inconclusive: -52.6%
CCOc1cc(C)c(-c2onc(C(F)(F)F)c2-c2csc(C)n2)c(O)c1	inconclusive: -43.1%
NC(Cc1ccccc1)c1csc(NC(=O)Nc2ccccc2Oc2ccccc2)n1 (configuration not stated)	inconclusive: -56.6%
O=c1c2ccccc2sn1-c1ccccc1F	active: -109%
C/C(=N\Nc1ccc(C(=O)O)cc1)c1ccc(-n2ccnc2)cc1	inactive: 32%
COc1ccc(Cc2nnc(SCC(=O)c3ccc(OC)cc3)o2)cc1	inactive: -34.1%
COCCN(CCOc1cc(C)cc(C)c1)Cc1ccc(Cl)cc1	inconclusive: -44.8%
CCOc1cccc(/C=C/c2ccc3ccccc3n2)c1OC(C)=O	active: -79.7%
CC(C)OCCCNc1ncnc2c1[nH]c1ccc(F)cc12	active: -79%
COc1cc(/C=C2/SC(=O)N(CC(=O)N3CCCC3)C2=O)ccc1Oc1ccc([N+](=O)[O-])cn1	inconclusive: -50.9%
CN(C)c1ccc(CN(CC2CCCO2)C(=O)COc2ccccc2Cl)cc1 (configuration not stated)	inactive: -35.1%

Compound	activity change, negative = inhibition
CCOC(=O)C1(CC2CCCCO2)CCN(Cc2nccn2-c2ccc(OC)cc2)CC1 (configuration not stated)	inconclusive: -40.2%
COc1ccc(CNC(=O)CN2C(=O)NC(C)(c3ccc(Cl)cc3)C2=O)cc1 (configuration not stated)	inconclusive: -46.7%
COc1ccc(N(CC(=O)NCc2ccc(F)cc2)S(=O)(=O)c2c(C)noc2C)cc1	inconclusive: -51.7%
Cc1c(C(=O)N2CCN(c3ccccn3)CC2)oc2c(F)cccc12	inactive: 8.22%
O=C(NCC1CCN(S(=O)(=O)c2ccccc2)CC1)Nc1ccccc1	inactive: 21.4%
C[C@@H]1CC=C[C@H]2[C@H]1C(=O)N(Cc1ccccc1)[C@H]2c1ccc2ccccc2c1	inactive: -36.3%
CCN(CC)c1ccc(S(=O)(=O)N2CCOCC2)cc1NC(=O)CSc1nnc(N)s1	inconclusive: -47.9%
Cc1nn(Cc2ccc(Cl)c(Cl)c2)c(C)c1NC(=O)c1cc(C2CC2)on1	inconclusive: -49.4%
COc1ccc(Nc2c3c(nc4ccc(NC(=O)/C=C/c5cc(OC)c(OC)c(OC)c5)cc24)CCCC3)cc1OC	active: -102%
C/C(CC(=O)N1CCCC1)=N\NC(=O)c1cc2ccccc2cc1O	inconclusive: -56%
COc1ccc(NC(C)=O)cc1NC(C)c1nc2sc(C)c(C)c2c(=O)[nH]1 (configuration not stated)	inactive: 10.5%
CC(C)(C)c1ccc(S(=O)(=O)NCC(=O)N2CCN(Cc3ccccc3)CC2)cc1	inconclusive: -57%
COc1ccc(N(CC(=O)N2CCCCCC2)S(=O)(=O)c2c(C)[nH]c(=O)[nH]c2=O)cc1	inconclusive: -59.5%
COc1cc(NC(=S)NCCc2ccccc2)c(OC)cc1NC(=O)C(C)C	inconclusive: -50.1%
Cc1ccccc1Cn1c(=O)n(Cc2ccc3c(c2)OCO3)c(=O)c2oc3ccccc3c21	inconclusive: -45.6%
Cc1ccc(OC(C)C(=O)Nc2cc(C)on2)cc1 (configuration not stated)	inactive: 13.4%
NC(=O)c1ccccc1NC(=O)C1CCCN(c2ncnc3onc(-c4ccc(F)cc4)c23)C1 (configuration not stated)	inactive: -5.21%
O=C(c1ccc(C(F)(F)F)cc1)N1CCC(c2noc(-c3ccc(S(=O)(=O)N4CCCC4)cc3)n2)CC1	inactive: -10%
O=C(CCc1nc2cccnc2n1Cc1cccs1)Nc1cccc(C(F)(F)F)c1	inactive: -38%
CCSc1cnn(-c2ccccc2)c(=O)c1Cl	inconclusive: -50.5%
Cc1cc(N2CCCC2=O)ccc1S(=O)(=O)N1CCOCC1	inconclusive: -43.1%
